Measured values reported in the supplement of paper PMC12819154, “High-throughput peptide-centric local stability assay extends protein–ligand identification to membrane proteins, tissues and bacteria” (Nature Structural & Molecular Biology, 2025).
This is one part of the list. Small differences around the control level are noise.

The chains behind the UniProt entries cited, without tags or fusion partners. Where a name states a change or a piece, a line headed by the entry shows the natural chain unless it says otherwise.
UniProt P07339: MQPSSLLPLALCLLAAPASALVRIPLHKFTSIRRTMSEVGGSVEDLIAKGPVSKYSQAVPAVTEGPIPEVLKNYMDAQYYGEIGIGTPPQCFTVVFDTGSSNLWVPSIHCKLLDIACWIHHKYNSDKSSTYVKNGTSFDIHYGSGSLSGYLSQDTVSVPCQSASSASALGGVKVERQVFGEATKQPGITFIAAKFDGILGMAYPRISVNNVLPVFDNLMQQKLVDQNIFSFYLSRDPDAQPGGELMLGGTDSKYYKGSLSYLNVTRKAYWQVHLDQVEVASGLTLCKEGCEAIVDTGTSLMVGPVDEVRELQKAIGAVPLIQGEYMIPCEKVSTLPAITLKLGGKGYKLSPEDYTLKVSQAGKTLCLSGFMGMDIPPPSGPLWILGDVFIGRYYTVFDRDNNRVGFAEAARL
UniProt P11387: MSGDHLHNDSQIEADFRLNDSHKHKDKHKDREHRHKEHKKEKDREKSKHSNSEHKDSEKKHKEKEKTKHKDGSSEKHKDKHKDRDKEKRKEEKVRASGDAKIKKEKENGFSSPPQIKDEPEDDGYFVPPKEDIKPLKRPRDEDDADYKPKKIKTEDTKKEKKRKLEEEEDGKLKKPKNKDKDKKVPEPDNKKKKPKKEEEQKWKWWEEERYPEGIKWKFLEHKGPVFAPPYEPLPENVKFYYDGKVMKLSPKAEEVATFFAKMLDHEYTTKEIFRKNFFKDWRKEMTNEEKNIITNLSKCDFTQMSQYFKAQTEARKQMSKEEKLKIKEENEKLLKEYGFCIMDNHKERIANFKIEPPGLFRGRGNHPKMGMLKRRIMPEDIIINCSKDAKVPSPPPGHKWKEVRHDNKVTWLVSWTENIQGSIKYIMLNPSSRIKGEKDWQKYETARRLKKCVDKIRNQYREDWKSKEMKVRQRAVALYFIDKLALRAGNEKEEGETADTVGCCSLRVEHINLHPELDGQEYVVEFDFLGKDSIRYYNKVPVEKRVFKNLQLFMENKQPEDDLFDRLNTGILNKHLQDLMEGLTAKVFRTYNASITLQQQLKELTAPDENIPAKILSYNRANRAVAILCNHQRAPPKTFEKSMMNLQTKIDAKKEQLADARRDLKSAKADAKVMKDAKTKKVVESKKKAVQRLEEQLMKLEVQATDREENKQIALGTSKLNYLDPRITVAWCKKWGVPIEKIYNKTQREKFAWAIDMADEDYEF
UniProt P04632: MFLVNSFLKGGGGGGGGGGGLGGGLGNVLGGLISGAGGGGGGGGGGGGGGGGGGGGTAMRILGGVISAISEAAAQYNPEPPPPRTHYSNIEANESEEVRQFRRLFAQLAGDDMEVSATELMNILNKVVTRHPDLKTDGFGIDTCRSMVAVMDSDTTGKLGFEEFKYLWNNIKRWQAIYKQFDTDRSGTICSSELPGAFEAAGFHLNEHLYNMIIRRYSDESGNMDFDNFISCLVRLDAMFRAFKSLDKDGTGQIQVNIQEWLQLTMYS
UniProt P06732: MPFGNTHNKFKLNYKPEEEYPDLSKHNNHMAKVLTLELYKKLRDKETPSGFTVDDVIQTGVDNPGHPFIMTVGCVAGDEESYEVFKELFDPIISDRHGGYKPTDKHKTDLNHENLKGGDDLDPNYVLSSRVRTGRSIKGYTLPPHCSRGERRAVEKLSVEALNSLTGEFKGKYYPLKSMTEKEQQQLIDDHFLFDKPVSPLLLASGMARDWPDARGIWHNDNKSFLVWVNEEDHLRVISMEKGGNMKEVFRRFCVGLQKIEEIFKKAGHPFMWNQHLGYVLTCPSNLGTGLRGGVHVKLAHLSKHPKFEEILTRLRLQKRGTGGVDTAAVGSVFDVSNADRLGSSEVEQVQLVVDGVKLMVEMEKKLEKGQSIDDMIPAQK
UniProt P11309, whole entry, looked up: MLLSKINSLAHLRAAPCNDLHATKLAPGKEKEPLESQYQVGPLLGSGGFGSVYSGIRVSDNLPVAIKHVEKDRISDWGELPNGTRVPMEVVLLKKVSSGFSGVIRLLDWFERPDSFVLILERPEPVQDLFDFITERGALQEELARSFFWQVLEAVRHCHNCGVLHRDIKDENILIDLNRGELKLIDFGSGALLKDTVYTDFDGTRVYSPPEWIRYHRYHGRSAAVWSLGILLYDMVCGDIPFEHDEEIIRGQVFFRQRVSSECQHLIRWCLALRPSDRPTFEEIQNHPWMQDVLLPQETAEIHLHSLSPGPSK
UniProt P06454: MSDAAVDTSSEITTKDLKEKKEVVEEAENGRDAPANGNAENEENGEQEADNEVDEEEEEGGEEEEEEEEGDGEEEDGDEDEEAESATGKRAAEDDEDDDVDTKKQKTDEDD
UniProt P13612, whole entry: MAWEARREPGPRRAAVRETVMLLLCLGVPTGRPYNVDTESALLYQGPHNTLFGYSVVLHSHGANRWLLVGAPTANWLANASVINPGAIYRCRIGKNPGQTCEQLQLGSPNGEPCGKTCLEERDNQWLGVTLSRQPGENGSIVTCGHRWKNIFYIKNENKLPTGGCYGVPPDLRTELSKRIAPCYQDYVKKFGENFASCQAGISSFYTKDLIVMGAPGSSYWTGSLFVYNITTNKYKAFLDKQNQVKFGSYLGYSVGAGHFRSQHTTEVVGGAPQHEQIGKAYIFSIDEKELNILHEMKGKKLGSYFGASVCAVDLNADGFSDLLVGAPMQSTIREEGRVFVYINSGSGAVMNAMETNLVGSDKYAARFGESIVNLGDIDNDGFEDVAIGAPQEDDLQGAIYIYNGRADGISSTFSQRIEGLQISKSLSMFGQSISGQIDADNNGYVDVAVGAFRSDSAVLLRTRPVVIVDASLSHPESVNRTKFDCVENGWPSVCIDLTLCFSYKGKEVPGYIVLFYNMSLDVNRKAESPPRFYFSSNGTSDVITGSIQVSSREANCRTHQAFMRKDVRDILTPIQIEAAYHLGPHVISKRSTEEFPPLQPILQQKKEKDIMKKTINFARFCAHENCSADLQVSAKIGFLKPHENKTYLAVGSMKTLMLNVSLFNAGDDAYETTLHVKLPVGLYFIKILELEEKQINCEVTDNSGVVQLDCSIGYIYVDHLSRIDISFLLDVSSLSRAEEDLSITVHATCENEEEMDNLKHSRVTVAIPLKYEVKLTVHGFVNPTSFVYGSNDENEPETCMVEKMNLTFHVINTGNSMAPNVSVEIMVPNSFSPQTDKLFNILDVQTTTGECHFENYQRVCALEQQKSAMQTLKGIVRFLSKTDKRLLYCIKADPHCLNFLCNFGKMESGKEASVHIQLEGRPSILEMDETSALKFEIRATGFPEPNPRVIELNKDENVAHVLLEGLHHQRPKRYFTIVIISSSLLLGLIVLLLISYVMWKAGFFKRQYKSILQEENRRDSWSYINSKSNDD
UniProt P08397: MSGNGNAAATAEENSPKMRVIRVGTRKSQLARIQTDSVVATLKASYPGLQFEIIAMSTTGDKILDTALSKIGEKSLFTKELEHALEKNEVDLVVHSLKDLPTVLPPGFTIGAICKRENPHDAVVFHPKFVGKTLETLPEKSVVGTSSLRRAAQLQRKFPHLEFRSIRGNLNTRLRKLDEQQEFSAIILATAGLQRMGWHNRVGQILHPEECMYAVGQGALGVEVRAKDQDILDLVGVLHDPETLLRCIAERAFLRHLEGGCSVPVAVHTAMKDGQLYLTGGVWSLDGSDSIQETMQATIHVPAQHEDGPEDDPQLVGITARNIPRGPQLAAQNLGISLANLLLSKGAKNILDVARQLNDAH
UniProt P11908: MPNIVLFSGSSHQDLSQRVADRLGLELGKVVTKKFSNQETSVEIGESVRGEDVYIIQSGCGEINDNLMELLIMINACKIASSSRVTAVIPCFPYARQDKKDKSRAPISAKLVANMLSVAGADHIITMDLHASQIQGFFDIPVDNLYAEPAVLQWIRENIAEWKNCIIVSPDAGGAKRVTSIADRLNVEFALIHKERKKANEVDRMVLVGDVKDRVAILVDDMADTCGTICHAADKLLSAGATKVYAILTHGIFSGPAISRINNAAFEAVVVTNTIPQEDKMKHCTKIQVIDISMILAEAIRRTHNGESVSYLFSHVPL
UniProt P07384: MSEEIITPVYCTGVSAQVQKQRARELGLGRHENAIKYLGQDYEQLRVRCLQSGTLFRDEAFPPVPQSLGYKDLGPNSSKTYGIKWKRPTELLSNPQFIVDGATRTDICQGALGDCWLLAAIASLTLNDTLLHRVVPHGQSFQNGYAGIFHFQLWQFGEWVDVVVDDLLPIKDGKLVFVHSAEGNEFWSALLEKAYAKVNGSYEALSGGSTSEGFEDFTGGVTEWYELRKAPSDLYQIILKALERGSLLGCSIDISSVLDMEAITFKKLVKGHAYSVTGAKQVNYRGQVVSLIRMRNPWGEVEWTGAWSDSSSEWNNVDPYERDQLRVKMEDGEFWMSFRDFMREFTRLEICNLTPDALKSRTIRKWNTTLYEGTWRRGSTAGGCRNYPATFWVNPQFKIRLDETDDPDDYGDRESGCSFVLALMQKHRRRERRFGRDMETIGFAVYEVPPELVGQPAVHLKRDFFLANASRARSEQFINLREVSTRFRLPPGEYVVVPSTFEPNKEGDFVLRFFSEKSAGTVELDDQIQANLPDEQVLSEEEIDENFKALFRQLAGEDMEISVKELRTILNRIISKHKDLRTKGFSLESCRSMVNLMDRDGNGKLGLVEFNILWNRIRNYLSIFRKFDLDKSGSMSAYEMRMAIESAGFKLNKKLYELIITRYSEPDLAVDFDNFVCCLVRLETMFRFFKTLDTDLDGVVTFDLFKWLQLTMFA
UniProt P06730, whole entry: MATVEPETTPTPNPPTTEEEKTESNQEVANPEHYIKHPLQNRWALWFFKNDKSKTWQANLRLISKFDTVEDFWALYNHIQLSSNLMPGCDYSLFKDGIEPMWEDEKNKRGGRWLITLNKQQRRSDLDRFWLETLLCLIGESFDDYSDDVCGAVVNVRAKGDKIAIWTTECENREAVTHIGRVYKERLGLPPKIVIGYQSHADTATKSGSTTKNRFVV
UniProt P01137, whole entry: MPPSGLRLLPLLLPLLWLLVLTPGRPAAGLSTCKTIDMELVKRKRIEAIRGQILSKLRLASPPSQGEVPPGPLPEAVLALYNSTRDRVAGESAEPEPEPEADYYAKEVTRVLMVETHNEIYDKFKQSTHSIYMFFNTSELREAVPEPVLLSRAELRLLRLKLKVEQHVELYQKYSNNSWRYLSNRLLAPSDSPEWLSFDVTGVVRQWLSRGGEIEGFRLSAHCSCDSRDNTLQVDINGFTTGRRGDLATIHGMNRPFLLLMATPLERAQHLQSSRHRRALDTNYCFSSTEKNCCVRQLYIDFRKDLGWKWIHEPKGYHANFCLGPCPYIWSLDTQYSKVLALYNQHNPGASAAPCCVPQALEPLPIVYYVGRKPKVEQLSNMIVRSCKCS
UniProt P02511: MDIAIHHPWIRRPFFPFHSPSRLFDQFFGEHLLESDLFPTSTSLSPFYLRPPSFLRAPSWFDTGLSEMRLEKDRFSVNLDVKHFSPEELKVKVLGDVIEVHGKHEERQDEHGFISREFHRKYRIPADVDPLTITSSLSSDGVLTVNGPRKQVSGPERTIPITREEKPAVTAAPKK
UniProt P13667: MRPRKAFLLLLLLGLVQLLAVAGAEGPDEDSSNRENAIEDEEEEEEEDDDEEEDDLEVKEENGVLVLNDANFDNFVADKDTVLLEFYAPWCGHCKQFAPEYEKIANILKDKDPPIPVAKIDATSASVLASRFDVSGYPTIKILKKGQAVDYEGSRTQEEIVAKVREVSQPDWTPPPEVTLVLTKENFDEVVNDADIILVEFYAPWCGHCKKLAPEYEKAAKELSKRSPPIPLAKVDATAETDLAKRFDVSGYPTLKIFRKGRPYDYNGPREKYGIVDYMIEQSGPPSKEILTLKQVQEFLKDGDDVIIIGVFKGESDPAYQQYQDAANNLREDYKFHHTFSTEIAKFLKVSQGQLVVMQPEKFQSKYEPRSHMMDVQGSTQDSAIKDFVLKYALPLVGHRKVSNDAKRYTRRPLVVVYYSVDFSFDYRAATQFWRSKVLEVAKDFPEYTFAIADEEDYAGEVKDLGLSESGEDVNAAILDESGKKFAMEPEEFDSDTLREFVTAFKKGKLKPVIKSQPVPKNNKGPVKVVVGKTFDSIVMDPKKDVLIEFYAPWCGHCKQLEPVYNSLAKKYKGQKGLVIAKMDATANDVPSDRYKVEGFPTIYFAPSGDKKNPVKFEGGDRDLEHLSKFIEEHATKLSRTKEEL
UniProt P06280: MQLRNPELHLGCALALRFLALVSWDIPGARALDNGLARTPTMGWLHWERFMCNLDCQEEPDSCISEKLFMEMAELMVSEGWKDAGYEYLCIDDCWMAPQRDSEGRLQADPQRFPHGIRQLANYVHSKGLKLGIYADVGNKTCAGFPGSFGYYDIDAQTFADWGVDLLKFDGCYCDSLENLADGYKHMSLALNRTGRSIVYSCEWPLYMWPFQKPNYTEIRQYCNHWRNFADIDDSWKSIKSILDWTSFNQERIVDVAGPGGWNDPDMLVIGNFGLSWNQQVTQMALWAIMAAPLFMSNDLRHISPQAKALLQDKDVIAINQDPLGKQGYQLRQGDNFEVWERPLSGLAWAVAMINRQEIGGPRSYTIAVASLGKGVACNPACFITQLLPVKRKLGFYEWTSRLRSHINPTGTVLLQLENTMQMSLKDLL

These targets were tested with Cc1nc(Nc2ncc(C(=O)Nc3c(C)cccc3Cl)s2)cc(N2CCN(CCO)CC2)n1 [dasatinib] (assay: log2 fold change of tryptic peptide abundance, ligand vs vehicle (limited proteolysis) (log2 ratio); higher = more trypsin-susceptible (destabilized)). Settings: ligand concentration: 5 uM; sample: K562 cleared lysate.
“SNRPA1 (peptide sequence: SLTYLSILR, peptide start residue: 114) (UniProt P09661)” showed a log2 fold change of -0.325. “CLTA (peptide sequence: QEAEWKEK, peptide start residue: 131) (UniProt P09496)” gave a log2 fold change of -0.326. With “APEH (peptide sequence: VVFDSAQR, peptide start residue: 376) (UniProt P13798)” the log2 fold change was 0.277. “HSPB1 (peptide sequence: LFDQAFGLPR, peptide start residue: 28) (UniProt P04792)” gave a log2 fold change of -2.4. “BPGM (peptide sequence: KVEDQGKVK, peptide start residue: 247) (UniProt P07738)” showed a log2 fold change of 0.215. Work on “TK1 (peptide sequence: YSSSFCTHDR, peptide start residue: 61) (UniProt P04183)” yielded a log2 fold change of 0.117. “SLC2A1 (peptide sequence: TFDEIASGFR, peptide start residue: 459) (UniProt P11166)” gave a log2 fold change of -0.0599. Target “CTSD (peptide sequence: QPGITFIAAK, peptide start residue: 185) (UniProt P07339)” has a log2 fold change of 0.222. With “HMGN2 (peptide sequence: KAEGDAKGDK, peptide start residue: 5) (UniProt P05204)” the log2 fold change was 0.191. With “TOP1 (peptide sequence: KVPEPDNKK, peptide start residue: 184) (UniProt P11387)” the log2 fold change was -0.203. In the case of “ESD (peptide sequence: AFSGYLGTDQSK, peptide start residue: 187) (UniProt P10768)”, the log2 fold change was -0.245. Work on “CAPNS1 (peptide sequence: TDGFGIDTCR, peptide start residue: 136) (UniProt P04632)” yielded a log2 fold change of -0.0982. In the case of “PGK2 (peptide sequence: VSHVSTGGGASLELLEGK, peptide start residue: 389) (UniProt P07205)”, the log2 fold change was 0.933. Work on “CKM (peptide sequence: GIWHNDNK, peptide start residue: 216) (UniProt P06732)” yielded a log2 fold change of 0.0405. “SPTA1 (peptide sequence: KFDEFQK, peptide start residue: 1119) (UniProt P02549)” showed a log2 fold change of 0.369. Work on “PIM1 (peptide sequence: GALQEELAR, peptide start residue: 137) (UniProt P11309)” yielded a log2 fold change of -0.426. “PTMA (peptide sequence: AAEDDEDDDVDTKKQK, peptide start residue: 91) (UniProt P06454)” gave a log2 fold change of -0.0639. “HIST1H1E (peptide sequence: KAASGEAKPK, peptide start residue: 110) (UniProt P10412)” showed a log2 fold change of -0.0641. Target “ITGA4 (peptide sequence: IEGLQISK, peptide start residue: 418) (UniProt P13612)” has a log2 fold change of 0.183. In the case of “ANXA1 (peptide sequence: GVDEATIIDILTKRNNAQR, peptide start residue: 59) (UniProt P04083)”, the log2 fold change was 0.506. Work on “UniProt P0DPI2 (peptide sequence: NLSTFAVDGKDCK, peptide start residue: 142)” yielded a log2 fold change of 0.722. In the case of “MYL3 (peptide sequence: ITYGQCGDVLR, peptide start residue: 73) (UniProt P08590)”, the log2 fold change was 0.0478. “HMBS (peptide sequence: FPHLEFR, peptide start residue: 158) (UniProt P08397)” was tested, and the log2 fold change was -0.142. “PRPS2 (peptide sequence: PNIVLFSGSSHQDLSQR, peptide start residue: 2) (UniProt P11908)” showed a log2 fold change of 0.0394. In the case of “GFAP (peptide sequence: GTNESLER, peptide start residue: 335) (UniProt P14136)”, the log2 fold change was -0.0249. In the case of “CAPN1 (peptide sequence: QVNYRGQVVSLIR, peptide start residue: 281) (UniProt P07384)”, the log2 fold change was 0.56. In the case of “CD55 (peptide sequence: GSGTTSGTTR, peptide start residue: 348) (UniProt P08174)”, the log2 fold change was -0.327. In the case of “UROD (peptide sequence: WLYQRPQASHQLLR, peptide start residue: 180) (UniProt P06132)”, the log2 fold change was 0.14. Work on “EIF4E (peptide sequence: SKTWQANLR, peptide start residue: 53) (UniProt P06730)” yielded a log2 fold change of -0.268. “TGFB1 (peptide sequence: AQHLQSSR, peptide start residue: 268) (UniProt P01137)” gave a log2 fold change of 0.144. In the case of “PLS3 (peptide sequence: ALENDPDCR, peptide start residue: 133) (UniProt P13797)”, the log2 fold change was 0.0502. “CRYAB (peptide sequence: MDIAIHHPWIR, peptide start residue: 1) (UniProt P02511)” gave a log2 fold change of -0.088. “DBI (peptide sequence: GTSKEDAMK, peptide start residue: 64) (UniProt P07108)” was tested, and the log2 fold change was 0.342. “PDIA4 (peptide sequence: TFDSIVMDPK, peptide start residue: 534) (UniProt P13667)” gave a log2 fold change of 0.152. With “CTSB (peptide sequence: HYGYNSYSVSNSEKDIMAEIYK, peptide start residue: 224) (UniProt P07858)” the log2 fold change was -0.838. “GLA (peptide sequence: TPTMGWLHWER, peptide start residue: 39) (UniProt P06280)” showed a log2 fold change of 0.208.
